Amino acid sequences for entries named in this document (tags omitted). A change or cut given only in a name is not applied to a line headed by its entry.
UniProt P41240: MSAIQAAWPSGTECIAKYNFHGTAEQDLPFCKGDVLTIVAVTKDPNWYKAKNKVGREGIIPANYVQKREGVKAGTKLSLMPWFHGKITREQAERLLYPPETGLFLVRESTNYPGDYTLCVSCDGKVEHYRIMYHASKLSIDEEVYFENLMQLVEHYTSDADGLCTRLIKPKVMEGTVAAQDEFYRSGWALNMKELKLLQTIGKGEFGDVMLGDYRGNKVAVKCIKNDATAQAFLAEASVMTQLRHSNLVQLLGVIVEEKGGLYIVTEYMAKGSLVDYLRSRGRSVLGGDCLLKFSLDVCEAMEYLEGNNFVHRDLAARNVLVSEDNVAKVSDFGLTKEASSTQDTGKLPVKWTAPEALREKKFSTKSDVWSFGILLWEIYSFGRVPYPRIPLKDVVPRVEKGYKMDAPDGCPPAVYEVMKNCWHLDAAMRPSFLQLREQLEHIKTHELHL
UniProt P48729: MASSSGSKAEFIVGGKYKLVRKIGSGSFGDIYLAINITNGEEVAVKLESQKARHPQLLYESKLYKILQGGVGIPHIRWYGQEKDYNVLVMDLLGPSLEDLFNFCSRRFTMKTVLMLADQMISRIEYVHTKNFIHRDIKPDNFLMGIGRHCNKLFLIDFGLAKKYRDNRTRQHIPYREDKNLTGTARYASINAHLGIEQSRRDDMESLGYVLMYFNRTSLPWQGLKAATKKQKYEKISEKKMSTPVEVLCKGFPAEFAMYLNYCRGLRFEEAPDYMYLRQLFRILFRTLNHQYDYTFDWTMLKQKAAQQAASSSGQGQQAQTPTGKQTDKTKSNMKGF

Structures can show the parent of a compound that is named as a salt. This is one part of the list. Hit calls seldom repeat between salt and free forms of one compound.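 In K562 cells expressing nanoluciferase-fused kinases, luminescence was recorded at 4 h intervals between 2 and 18 h, normalized as percent of control with DMSO at 100% and a positive control at 0%. A significant (2 sigma) signal drop marks a time point as decreased. The authors' rule for a hit is not shown and takes in more than the number of time points.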
What follows are compounds tested against CSK (UniProt P41240) (assay: number of time points (of 5) at which kinase-Nluc abundance scored as decreased, DMSO-normalised (count); higher = more persistent destabilization). Conditions: K562; 2-18 h.
`CCN1CCN(c2ccc(Nc3cc(N(C)C(=O)Nc4c(Cl)c(OC)cc(OC)c4Cl)ncn3)cc2)CC1` [Infigratinib] (10 µM) was tested, and the “number of time points” value was 0. With `COc1c(CC=C(C)C)c(O)cc2oc(=O)c(-c3ccc(O)cc3O)cc12` [Glycycoumarin] (10 µM) the “number of time points” value was 0. For `Cc1cc(C(=O)Nc2cccc(C(=O)Nc3cccc(C(F)(F)F)c3)c2)on1` (10 µM), the “number of time points” value was 0. `Cn1c(=O)c(Oc2ccc(F)cc2F)cc2cnc(NC3CCOCC3)nc21` [R1487 (Hydrochloride)] (10 µM) was tested, and the “number of time points” value was 0.

The compounds below were run against CSNK1A1 (UniProt P48729) in the same assay as above. Conditions: K562; 2-18 h.
With `N#Cc1ccc2[nH]c(O)c(-c3ccc(CN4CCOCC4)cn3)c2c1` (10 µM) the “number of time points” value was 0. `CCN(CC)CCCCNc1ncc2cc(-c3cc(OC)cc(OC)c3)c(NC(=O)NC(C)(C)C)nc2n1` (10 µM) was tested, and the “number of time points” value was 0. In the case of `Oc1ccc(-c2nc(-c3ccc(F)cc3)c(-c3ccncc3)[nH]2)cc1` (2.5 µM), the “number of time points” value was 0. `O=C1NCCc2[nH]c(-c3ccnc(-c4cnc5ccccc5c4)c3)cc21` (10 µM) was tested, and the “number of time points” value was 0. `Cc1cc(N2CCOCC2)cc2[nH]c(-c3c(NC[C@@H](O)c4cccc(Cl)c4)cc[nH]c3=O)nc12` (10 µM) was tested, and the “number of time points” value was 0. `COc1cc(OC)cc(-c2cc3cnc(N)nc3nc2NC(=O)NC(C)(C)C)c1` (10 µM) was tested, and the “number of time points” value was 0. With `Cc1ccc(NC(=O)Nc2nnc(Sc3ncnc4cc(OCCCN5CCOCC5)ccc34)s2)cc1` (10 µM) the “number of time points” value was 0. In the case of `N#C/C(=C\c1ccc(O)c(O)c1)C(=O)NCCCc1ccccc1` (10 µM), the “number of time points” value was 0. With `Cc1cccc([C@@H](CO)NC(=O)[C@@H](C)N2Cc3ccc(-c4nc(NC5CCOCC5)ncc4Cl)cc3C2=O)c1` [ERK1/2 inhibitor 1] (10 µM) the “number of time points” value was 0. With `CCOc1ccn(-c2ccc(F)cc2)c(=O)c1C(=O)Nc1ccc(Oc2ccnc(N)c2Cl)c(F)c1` (10 µM) the “number of time points” value was 0. For `O=c1cc(N2CCOCC2)oc2c(-c3ccccc3)cccc12` (10 µM), the “number of time points” value was 0. `O=c1oc2c(O)c(O)cc3c(=O)oc4c(O)c(O)cc1c4c23` [Ellagic acid] (10 µM) was tested, and the “number of time points” value was 0. For `C=CC(=O)Nc1ccc2ncnc(Nc3cccc(Br)c3)c2c1` (10 µM), the “number of time points” value was 0. In the case of `Cc1c(Cn2c(C)nc3c(C(=O)O)cc(N4CCOCC4)cc32)cccc1C(F)(F)F` (10 µM), the “number of time points” value was 0. `Cc1c[nH]c2nccc(Oc3c(F)cc(Nc4cc(Cl)nc(N)n4)cc3F)c12` (10 µM) was tested, and the “number of time points” value was 0. In the case of `CC(C)CC(=O)Nc1n[nH]c2c1CN(C(=O)C1CCN(C)CC1)C2(C)C` (2.5 µM), the “number of time points” value was 0. With `CCN(CCO)CCCOc1ccc2c(Nc3cc(CC(=O)Nc4cccc(F)c4)[nH]n3)ncnc2c1` [Barasertib-HQPA] (10 µM) the “number of time points” value was 0. With `N#C/C(=C\c1ccc(O)c(O)c1)C(=O)NCc1ccccc1` (10 µM) the “number of time points” value was 0. `COc1nccc(-c2c(-c3ccc(F)cc3)ncn2C2CCC(O)CC2)n1` (stereo not drawn) (10 µM) was tested, and the “number of time points” value was 0. In the case of `O=c1c(-c2ccc(O)cc2)coc2cc(O)cc(O)c12` [Genistein] (10 µM), the “number of time points” value was 0. `CCOc1cc2ncc(C#N)c(Nc3ccc(OCc4ccccn4)c(Cl)c3)c2cc1NC(=O)/C=C/CN(C)C` [Neratinib] (10 µM) was tested, and the “number of time points” value was 0. In the case of `CN1CCC(Nc2ncc3ncnc(Nc4ccc(F)c(Cl)c4)c3n2)CC1` [Falnidamol] (10 µM), the “number of time points” value was 0. For `O=c1c(O)c(-c2ccc(O)c(O)c2)oc2cc(O)cc(O)c12` [Quercetin (dihydrate)] (10 µM), the “number of time points” value was 0. In the case of `COc1ccc(C=C(C#N)c2cccnc2)cc1OC` (10 µM), the “number of time points” value was 0. In the case of `Nc1ncnc2c1c(-c1ccc(Oc3ccccc3)cc1)cn2C1CCCC1` (2.5 µM), the “number of time points” value was 0. `COc1cc2nc(C)nc(N[C@H](C)c3cc(N)cc(C(F)(F)F)c3)c2cc1O[C@H]1CCOC1` (10 µM) was tested, and the “number of time points” value was 0. For `N#CC(=Cc1ccc(O)c(O)c1)C(=O)NCc1ccccc1` (mixture of isomers) (10 µM), the “number of time points” value was 0. For `O=C1Cc2c([nH]c3ccc(Br)cc23)-c2ncccc2N1` [1-Azakenpaullone] (10 µM), the “number of time points” value was 0. With `COc1cc2c(Nc3ccc(Br)cc3F)ncnc2cc1OCCn1ccnn1` (10 µM) the “number of time points” value was 0. With `CNc1nc(-c2ccc3c(N)n[nH]c3c2)cc(N2C[C@@H](C(=O)NC3CCCCC3)CC[C@H]2C)n1` (10 µM) the “number of time points” value was 0. `Cc1cc(F)c(C(=O)Nc2cccc(-c3nncn3C(C)C)n2)cc1-n1cnc(C2CC2)c1` [Selonsertib] (10 µM) was tested, and the “number of time points” value was 0. With `COc1cc(C)c(Sc2cnc(NC(=O)c3ccc(CNC(C)C(C)(C)C)cc3)s2)cc1C(=O)N1CCN(C(C)=O)CC1` (stereo not drawn) (2.5 µM) the “number of time points” value was 0. For `CCN(CC)CCCCNc1ncc2cc(-c3c(Cl)cccc3Cl)c(NC(=O)NC(C)(C)C)nc2n1` (2.5 µM), the “number of time points” value was 3. For `COc1cc(C=C(C#N)C(N)=O)cc(CSc2nc3ccccc3s2)c1O` (10 µM), the “number of time points” value was 0. For `C[C@]1(O)C[C@@H](c2nc(-c3ccc4ccc(-c5ccccc5)nc4c3)c3c(N)nccn32)C1` [Linsitinib] (2.5 µM), the “number of time points” value was 0. With `CCN1CCN(c2ccc(Nc3cc(N(C)C(=O)Nc4c(Cl)c(OC)cc(OC)c4Cl)ncn3)cc2)CC1` [Infigratinib] (10 µM) the “number of time points” value was 0. With `COc1c(CC=C(C)C)c(O)cc2oc(=O)c(-c3ccc(O)cc3O)cc12` [Glycycoumarin] (10 µM) the “number of time points” value was 0. With `Cc1cc(C(=O)Nc2cccc(C(=O)Nc3cccc(C(F)(F)F)c3)c2)on1` (10 µM) the “number of time points” value was 0. With `Cn1c(=O)c(Oc2ccc(F)cc2F)cc2cnc(NC3CCOCC3)nc21` [R1487 (Hydrochloride)] (10 µM) the “number of time points” value was 0.
